Laboratory results reported in PMC10252828.

T1: PSMA4-GFP (20S proteasomal subunit PSMA4 with GFP fused C-terminally) (D. discoideum) (UniProt P34119)
T1 sequence: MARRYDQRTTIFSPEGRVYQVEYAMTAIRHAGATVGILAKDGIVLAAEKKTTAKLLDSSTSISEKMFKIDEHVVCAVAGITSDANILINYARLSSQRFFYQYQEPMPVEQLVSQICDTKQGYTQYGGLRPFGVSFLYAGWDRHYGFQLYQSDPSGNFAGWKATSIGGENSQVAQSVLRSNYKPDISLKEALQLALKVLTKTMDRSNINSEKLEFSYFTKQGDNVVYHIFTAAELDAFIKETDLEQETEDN

B1: Uncharacterized protein Q75JX9 (DDB_G0272214), ubiquitinated at K303 (protein, UniProt Q75JX9 1-630)
chain: MSTINHIESHFQASNQILHSNPSTLTFLENIDRLLNLTNSTYSGIQYTGIRGLNDFSCTSFKMLVIVFSKFRSMKSIFKLVNSPDEKVRSETLSLLWNFSAEESLKIKMFEERILNYIGCLFNYQDENLLLRTSAIIQNLCEFRFEKGAINQNQIKIVSQYKDLLSTIIQRSNHQDVRIKFLSCNTLCNLSMNEENRKLFQHMNIFQDVIGEFNKNYLNDIELPSSFNWVTLQPLLGLISSKDTQVQIFILYCVLSFSLSEKYNRRLWRVFANNHGIESLLKLKKSKIQLVSELSTKICTTLKIGKISYLHRQLNNNNNNKKQKIETLKHDSNECLENDISKLFNNENMFPDLIIKCKDKPNFYLHRSICVSRCPKLKIILDNQSINNDDSGDGRNGLKSSTGFEKEFLNLSGIGEKIISNINYGDRQIVQLELELYETFYEIAKWIYGIHSNSNLSSEVVAKSVMKIAYFLEVQDIIQECEYSLWHHIDLNNCSEILNLSLQCNSKQLENVTVEFILRNLDSIYFGNAKSDFLNHTFNQDLNINKLWYSGGTNNWTKLIKNHIINSYQLQQQKFKIEIHELNNQNNSNKNNNNNNINNNNNNLHFNNNININTNNIQHYSSYNDYDSYR
modifications: ubiquitinated lysine at 303
B2: Uncharacterized protein Q55CG3 (DDB_G0271028), ubiquitinated at K18 (protein, UniProt Q55CG3 1-124)
chain: MSFSPTYGTPSKIIDSPKARSITTIKGRDLAWRYLLKALPKHHGENCHSCKEEESSMHIFFECKSIKQDIDSIYQKVCKDYNNIYHGPWSEKVLGKLLTPFSSNLIGAIMESIWCTGLLKLIYN
modifications: ubiquitinated lysine at 18
B3: Uncharacterized protein Q54ED9 (DDB_G0291538), ubiquitinated at K3 (protein, UniProt Q54ED9 1-181)
chain: MEKEKFEYSREGEKSSLTIDTGKLVQEFNSLPYEDIQGKKKIIEKLFGSVGDDVSIEHNFHCDLGFNIHVGNRFYAGYNFTVLDVAEVRIGDNCLIAPNVGIYTAGHYISPPEERHKTGYGIPITIGNNVWIGGHSVILPGVTIGDNSIIAAGSVVNKDVPKNTIVAGNPARKIKDITSKL
modifications: ubiquitinated lysine at 3
B4: Uncharacterized protein Q55GK4 (DDB_G0267634), ubiquitinated at K827 (protein, UniProt Q55GK4 1-966)
chain: MDNTSNNNNNNNNNNNNNNNNNNNNNNNNNNNNNNNNNNNNNNNNNNNNNNNNNNNNNNNNNNINNINKNEELFWKVIKNKFLFTLIFLHIETTEWNIYNDHREFNTGINRKKFKNIKSFQWMVSKKQFQLLKYKIKIGEQINIDKNGIIELFKINNNNNNNNNNNNNNNNNNNNDLNNNNLNNLNNNKILKELLSIIIFKIENKEINNFDLLKIAIELNNIESIDILINEPFSLEITKSILEFSILNSNPIIINKLLKKNKEIIINQEFIEKLITLIYNNNNLNSKQKDENIKFILNNFKVSSFNNNNNDFNIIETILSIEITEKLIDLNFFNKKSINFENFENKFGKIKKYSIIEFNNKINQLINNNNNNNNNNNNNNNNNNNNNNNNNNNNNNNNNNNNNNNNNNNNNNNNNNNNNNNNNNNNNNIKELYNLFSKVSKEFYEIYYSLNYLNDPILDFKIILKYIFSSLDIEIFKLFLNNLKIKNENEIKEIKLISQKIKFKYMASIVQLPINHQSFLNFINLYTSNESIIQNNHFDETILKFIYMTSKSNHQYKESINNISSKCFNKFSFKLPNHFNQYLSNISFYNPIFIENFENDLNLLKRIEYCNNGKFQLNALDFLKQSFETKEFLINYFYSNQYKDFNESSFKLLILIISEDQNYFKNIKLNFNKFFNQSSLLLINSISIFNSKIIELMFKQNFNPIISNTNSFMDQFELTFNQYHDKINSINCKFSFKSNKIIYKSYSNTDENQIIKCIELFIEQFKIHFNHPNTLSIIINLLFKILIKIKNVSIEKLLNIYKLIKETISKNFQQHSLYHSLNYLRIKSPKFLKYILDKPFLTPLSLPIPNTMIYYYNIIQSKEIQNSINPNLFTFEFIFINSNFDEILEKLMFNFTFNSILNQNIQYDFNLLNSELKYCLEIRRFDLFFNYLKLINWNINNFKLSNSLLKISFKILNYNLFKNLIN
modifications: ubiquitinated lysine at 827
B5: T-complex protein 1 subunit alpha, ubiquitinated at K468 (protein, UniProt Q55BM4 1-548)
chain: MSNKVLMIDGDRISGNEVRAQNVLAVTAIANIVKTSFGPIGLDKMLIDNIGSIVVTNDGATILQKIDIEHPAAKILVQLSELQDQEVGDGTTTVVILAAELLKRANELVARKVHPTVIISGFRLACTEAIKYINETLAVKVETLPKDFIVNIAKTSMSSKTINDDSDFFSKIVIEAITRVKTIDYKGDVKYPINAINILKAHGKSAKESTLVEGYALNCTVASEGMPKRIQGAKIAFLDFNLAKTKMKLGQKVVVTNVNDLEAIRDRENDIVKERISLIIKSGANVVLTTKGIDDLCLKYFVEAGCMAVRRCKKEDLKRIAKSCGGTVLITLANLEGEESFDTTALGIADEVVQDRLADDELIIVKNSNKKSASIILRGANELMLDEMERSIHDSLCIVKRTLESGTIVPGGGAVESALSIYLDNIAATMGSRKQLAISEFAESLLVVPKQLAVNAALDASDLVSKLKAYHHAAQTDPSKKSYAYSGLDLFNNKVRNNLEAGVLEPAIAKIKCIKFATESAITILRIDDKITLNPREQQGGDHEGHGH
modifications: ubiquitinated lysine at 468
B6: Uncharacterized protein Q55B20 (DDB_G0271470), ubiquitinated at K3 (protein, UniProt Q55B20 1-175)
chain: MAKLESQRLYFRELESNDDENLFELDSDQEVHQYLKSAVTNIDQCRAAIKGIQNQYKLNGIGRMAVIIKETNEFIGWAGLKIENNINGRQSYYDIGYRFIKRYWGKGYATEATQFFINYGFNILKIEKICAFADKDHIASRKVLEKSGLKFIEMFKDDDNNEEAWYEIDNPHSNV
modifications: ubiquitinated lysine at 3
B7: ubiquilin (protein, UniProt Q9NIF3 1-523)
chain: MVKINIKSSTDNKFDVDVELGITVADFKKVIATKCSIPADQQRIIYSGRILKDHQTLDEIKIQDGHTVHLVKGAAPPPPPPVEQQVPTPSNTQPQGIPGVPQNINDMMNNPMIQEMFNSRMMDSLLDNPDIFRDMMMGNPEMREVLNNNPEMAQMLSDPRQLRQSLEMMRNPELMREMMRNADRAMINIENHPEGFNLLRRMYTDIQEPLMNAANQQAASQNQTNSNPIQTNTDANPNSQPLPNPWSTNSSSTSSNPTSSSPSSRPTTGSSTNTGASNPWASMFSGGGGGMGGGTNNTGTNNTGSTNNTGASNPWASMFGGGGGGMGGMGGMEGMLGMDPERVQQLLNNPVAQQMMQRLMSDPAMMQQMITMNPQLRQMMDSNPQLREAMNNPEFLNMMTNPENMNAMMQLQQAMGTLRNNGVFPGGMGGMGGMGGMGGMGGMGGMDFSQFGNMFGGMGGMGGMGNNNSSTTRPPVNQEPPEQRFRLQLEQLEELGFVDRAANISALTSTNGNINLAIDRLLR
B8: Eukaryotic translation initiation factor 4E, ubiquitinated at K870 (protein, UniProt B0G0Z1 1-977)
chain: MVNYFNLLDESDEEETNTTVKKDLTVETTAPTTTAVIEKENKVNNKVETSTAATSASSSTTGGIYVPPLRTSSEATNKAPPSQHIEIQFDVNKFNSEETLPENWILWYDTKKNSPQEGENNEYLQNVEKIGSFNSLKQFKNMWESLKTPLDVIGNISIFKEGIEPAWEDPKNKDGGKITINYLKDNGDFNFLLNAWFTLFTTIVFSTFENYEQSNGIVLSIRSWGASIHLWNNSSENDKVQSIRDVFQNILFVKYSKFSPHKTALDMNKNKDPNTKQINKNKKRDEHGFTIKPVNTLLSVHPTFSGAYEKQWVLPENNKPDKSLNIINTNTKPKKSSPYTVNTEERKESPDIINDSNNIINNNNNNNNNNSNNNENNNNSDNIENEQSEPIPEIPSGVNAWSTGILLGQPKVEESQKQLDEQPLVVKEDEKENEKEKEKEKEKEKEKEKEKEKIIEKKESKSAYSNAWGNSKIEQPTTTPSNNNNNNTTKSSNTPTPMINTNIEIPTGANAWATGKLLVKQEVVEDKQSLNNVDGAAVAASTTTITPPPVVTTENKEKKGKTEKKEKENKAPTVVITEKKDSSQSQEKPIKRVSSKEVLQEKPIKRVNSKEVLQSQPTESFWEEPTPITVVQQTQVPTKVPKKTIEPTPTPTPTPTPTPTPTPTQTTASTSTPTQVDTFSKVVKKDKSYKQTKTTVSSWGSPTSIADLIASQPEPTTVIVAPVATEVTIPTPTAAPISTNTATTVTTTTTTTSPTNTTAITPTATVVATVESEVKSGVLSIKENKKVETISSVNVQTKVEKDEWISIEKKPKTAKQLVDKKEKDETSPSLLNKGPKDNLLIRNLLVEEPLDYPSPIKPSQPIKNITKEVKKDIQPKENKKENQLKENKKENNNNNNNNNTNNISKENNTKKVSKSSTSNTLKNNNDNIVNSTNKQTNKSTTTTSEKDLSIISSSLIMNLVAVVSVLVLGFILKYLFV
modifications: ubiquitinated lysine at 870
B9: BolA-like protein, ubiquitinated at K19 (protein, UniProt Q86HT3 1-52)
chain: MSGGCGSMYKIEIVSPEFKGKSMINQHRKVNQILKSVIPSLHGLTLVTKSDE
modifications: ubiquitinated lysine at 19
B10: 60S ribosomal protein L24, ubiquitinated at K70 (protein, UniProt Q54VN6 1-127)
chain: MKTSLCNYSEFKIYPARGMKFVRGDSKVFHFINTKVESLFFRKINPRDIRWSMVYRRIYKNTTTDVSAKKKARKTKKVERNIVGASLEVIQQKRAQKPEVKQAAAEQAKREIKEKKKAAAKKAAPKK
modifications: ubiquitinated lysine at 70

Target: T1, PSMA4-GFP (20S proteasomal subunit PSMA4 with GFP fused C-terminally) (D. discoideum)
Assay: affinity purification with mass spectrometry; GFP-trap beads, 2 h at 4 °C, with the soluble supernatant of lysates of AX2 and ATG16- cells expressing RFP-PSMD1 and PSMA4-GFP; cells without PSMA4-GFP as negative controls; three biological replicates; label-free quantification; GlyGly (K) and ubiquitination as variable modifications

binding, binds:
Uncharacterized protein Q54HN5 (DDB_G0289337), ubiquitinated at K3 (from UniProt Q54HN5 1-1528)
Uncharacterized protein Q54KW5 (DDB_G0287061), ubiquitinated at K927 (from UniProt Q54KW5 1-1836)
ubiquitin system component CUE domain-containing protein
60S ribosomal protein L34, ubiquitinated at K106 (from UniProt Q54LV8 1-122)
proteasome activator 28 (PSME3) (from UniProt Q967U1)
Uncharacterized protein Q54SZ7 (DDB_G0282111), ubiquitinated at K700 (from UniProt Q54SZ7 1-2562)
proteasome maturation protein homolog (POMP) (from UniProt Q55G18)
Ubiquitin-60S ribosomal protein L40, ubiquitinated at K48 (from UniProt P14794 1-76)
Uncharacterized protein Q54T94 (DDB_G0281913), ubiquitinated at K146 (from UniProt Q54T94 1-509)
B1
B2
B3
B4
B5
B6
B7
B8
B9
B10

No constants are given. Whether binding was seen depends on the method and setting. In cells and extracts the contact can be indirect. These calls come from enrichment with a bait or labelling near it, and not all partners need be listed. Tags and fused reporters may be left off the sequences shown.
